The data set concerns the target hCdc5 DNA-binding domain (aa 1-500) (Homo sapiens) (UniProt Q99459). Description: SELEX. The conditions noted are these: all five sequenced round 8 products identical; Ni-NTA pulldown selection; purified recombinant protein; protein details: His6 fusion (pET29c(+), E. coli BL21(DE3), Ni-NTA); label: 32P.

By UniProt entry, the sequences of proteins in these tests, tags left out. Residues count along the entry.
UniProt Q99459, 1-500: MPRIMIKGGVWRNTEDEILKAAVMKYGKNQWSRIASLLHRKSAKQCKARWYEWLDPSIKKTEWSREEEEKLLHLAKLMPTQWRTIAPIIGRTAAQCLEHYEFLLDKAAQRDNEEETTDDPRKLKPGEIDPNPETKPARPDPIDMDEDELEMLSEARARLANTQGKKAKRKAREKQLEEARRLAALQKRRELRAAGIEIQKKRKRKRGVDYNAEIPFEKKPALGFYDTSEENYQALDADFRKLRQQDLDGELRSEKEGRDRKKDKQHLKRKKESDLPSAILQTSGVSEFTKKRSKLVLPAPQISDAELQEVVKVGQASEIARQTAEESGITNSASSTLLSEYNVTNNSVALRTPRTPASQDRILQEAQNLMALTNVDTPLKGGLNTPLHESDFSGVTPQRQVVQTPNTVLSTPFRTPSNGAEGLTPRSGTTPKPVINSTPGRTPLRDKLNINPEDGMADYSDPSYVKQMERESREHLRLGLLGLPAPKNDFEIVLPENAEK

The exact form of at least one protein or probe is not confirmed.

Consider “GATTTAACATAA (double strand) [hCdc5 consensus site]”, for which the selection result is reported as “selected”.

The record behind these values is US20020127702.
